# Test results reported in PubChem BioAssay AID1259354 (Paczesny and Yang Labs, IUPUI and University of Michigan, 2018).
# Protein sequences, listed by entry. Tags and fused reporters are not part of them. Lines headed by an entry give the natural chain unless they say otherwise; changes in a name come on top.
# UniProt Q01638: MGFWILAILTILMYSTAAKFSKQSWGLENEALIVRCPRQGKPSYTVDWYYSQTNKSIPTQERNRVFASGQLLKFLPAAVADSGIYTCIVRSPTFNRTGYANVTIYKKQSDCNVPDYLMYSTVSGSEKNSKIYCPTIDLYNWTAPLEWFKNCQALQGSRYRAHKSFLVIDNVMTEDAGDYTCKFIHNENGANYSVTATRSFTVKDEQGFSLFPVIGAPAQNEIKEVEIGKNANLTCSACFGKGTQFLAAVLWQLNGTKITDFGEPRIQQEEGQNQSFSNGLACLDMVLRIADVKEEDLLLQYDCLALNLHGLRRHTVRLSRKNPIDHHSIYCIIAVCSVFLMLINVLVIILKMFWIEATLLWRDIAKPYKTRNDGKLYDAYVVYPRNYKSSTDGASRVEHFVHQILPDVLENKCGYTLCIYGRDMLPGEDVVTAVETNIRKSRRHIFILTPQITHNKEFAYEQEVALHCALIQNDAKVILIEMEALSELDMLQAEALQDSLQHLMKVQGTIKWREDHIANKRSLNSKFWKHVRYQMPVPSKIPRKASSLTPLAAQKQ
# Several values for one entry are separate records, joined by “and”; a condition that tells them apart may be missing. Identical values can stand only once. About 1,800 (2.3%) of roughly 78,000 compounds were called active. The inconclusive results got no clear call from the source; some entries with a clear call stand among them for comparison. Rule as the data show it: active = inhibition above about 30%; inconclusive = mostly about 10% to 28%; inactive = weaker than that.
# Target: Interleukin-1 receptor-like 1 (Homo sapiens) (UniProt Q01638)
# Assay: blocks human ST2 binding to IL-33, primary screen, biochemical, AlphaLISA (AID 1259354)
# Settings: AlphaLISA ST2-Fc/biotin-IL-33 interaction, 1 h; at 17 µM, active compounds read high
row,SMILES,inhibition
1,CN1/C(=C\C(C[N+](=O)[O-])c2ccc3c(c2)OCO3)C(C)(C)c2ccccc21 (centres undefined),inconclusive: 21% and inconclusive: 16%
2,Cc1ccc(-c2nc3ncccc3o2)cc1NC(=O)COc1ccc(Br)cc1,inactive
3,CC(C)N(C(=O)c1ccccc1F)C(C)C,inconclusive: 23%
4,O=C(c1ccco1)N1CCN=C1SCc1ccccc1F,inconclusive: 12%
5,Cc1c(C(=O)NCCN(C)C)oc2ccc(S(=O)(=O)N3CCCCCC3)cc12,inactive
6,O=C(c1ccnnc1)N1CCn2nc(C(=O)N3CCCC3)cc2C1,inactive
7,Cc1cc(C)nc(SCc2ccc(C(=O)N3CCCC3c3ccccn3)o2)n1 (centres undefined),inactive
8,N#Cc1c(-c2ccccc2)nc(N2CCCCCC2)[nH]c1=O,inconclusive: 11%
9,O=C(NCc1ccco1)c1c(F)c(F)c(F)c(F)c1F,inconclusive: 10%
10,COC(=O)c1cc(CN2CCN(C(=O)c3cccc(OC)c3)CC2)cs1,inactive
11,O=C(Nc1cc(NC(=O)c2ccccc2)cc(-c2nc3ccccc3o2)c1)c1ccccc1,inconclusive: 13%
12,CC(=O)c1ccc(NC(=O)C(Cc2ccccc2)N2C(=O)c3ccccc3C2=O)cc1 (centres undefined),inactive
13,O=C(NCCc1ccc(Cl)cc1)c1ccc(CS(=O)(=O)c2ccc(Cl)cc2)o1,inconclusive: 10%
14,CCN(CC)CCNC(=O)CN1C(=O)COc2ccc(C)cc21,inactive
15,Cc1cccc(C)c1NC(=O)Cc1ccccc1,inconclusive: 16%
16,O=C1C(=O)N(CCCc2ccccc2)c2ccccc21,inconclusive: 15%
17,CCN1CC(NC(=O)COc2ccccc2O)CC1=O (centres undefined),inconclusive: 13%
18,CCc1ccc(N=Cc2cccc([N+](=O)[O-])c2O)cc1,inactive
19,Cn1nc(C2CCN(c3ncccc3C(N)=O)CC2)n(-c2ccccc2)c1=O,inconclusive: 10%
20,O=C(Nc1ccccc1[N+](=O)[O-])c1cc(I)ccc1Cl,active: 35%

row,SMILES,inhibition
1,CNc1ncc(CN(C)c2nc(-c3cccnc3)nc3c2cnn3C)cn1,active: 46%
2,c1ccc(C2CCCN2Cc2cnc(N3CCCC3)nc2)nc1 (centres undefined),inconclusive: 10%
3,O=C(Cn1c(=O)n(-c2ccccc2)c(=O)c2sccc21)OCc1ccccc1,inactive
4,Cc1cccnc1CN1CCN(Cc2cnc(-c3ccco3)nc2)CC1,inconclusive: 15%
5,O=C(c1ccc2c(=O)n(CCc3ccccc3)c(=O)[nH]c2c1)N1CCN(Cc2ccccc2)CC1,inconclusive: 13%
6,Cc1ccc(S(=O)(=O)Cc2noc([C@@H]3C[C@@H](O)CN3)n2)cc1,inconclusive: 19%
7,O=C1CO[C@H]2CN(Cc3ccc(C(=O)O)cc3)C[C@H]2N1,inconclusive: 21%
8,CCCN1CCC(Cc2noc(-c3cccc4nccnc34)n2)CC1,inconclusive: 11%
9,CCc1ccccc1NC(=O)c1cccc(OC(C)C)c1,inconclusive: 19%
10,O=C(c1cc(F)ccc1F)C1CCCN(C(=O)C2=CCCC2)C1 (centres undefined),inactive
11,COc1cccc(Cn2c(CNC(=O)c3cccc(N(C)C)c3)nc3cccnc32)c1,inconclusive: 13%
12,O=C(NCCN1CCOC1=O)c1cn(Cc2ccc(F)cc2)nn1,inconclusive: 12%
13,CCOc1ccc(NC(=O)CSc2nc3ccc(N)cc3s2)cc1,inconclusive: 12%
14,Cc1ccccc1Cc1c(C)nc2nc(SCC(=O)NCc3ccc4c(c3)OCO4)nn2c1C,inconclusive: 15%
15,COc1c(O[C@@H]2O[C@H](C(=O)O)[C@@H](O)[C@H](O)[C@H]2O)cc(O)c2c(=O)cc(-c3ccccc3)oc12,inconclusive: 16%
16,COc1cc(COC2CN(C(=O)c3cc4ccccc4o3)CC(=O)N(C(C)C)C2)cc(OC)c1 (centres undefined),inconclusive: 11%
17,CCOC(=O)c1nn(CCC(F)(F)F)c2c1CN(C(=O)CCc1ccc3c(c1)OCO3)CC2,inconclusive: 19%
18,CCC(Sc1nnc(C)c(=O)[nH]1)C(=O)Nc1ccccc1C#N (centres undefined),inconclusive: 11%
19,CS(=O)(=O)Nc1cccc(C(=O)CC2(O)C(=O)Nc3ccc(Br)cc32)c1 (centres undefined),inconclusive: 10%
20,O=C(O)CCC(=O)N1CCc2cc(S(=O)(=O)Nc3ccc(Cl)cc3)ccc21,inconclusive: 22%

row,SMILES,inhibition
1,O=C1CCCC2=C1C(c1cccs1)Nc1ccccc1N2 (centres undefined),inconclusive: 14%
2,CC1CC(=O)C2=C(CCC3(O)C2C(=O)c2cccc(O)c2C3O)C1 (centres undefined),active: 31%
3,O=C1NN(c2ccccc2)C(=O)/C1=C/c1ccccc1OCc1c(F)cccc1Cl,active: 41%
4,CCCS(=O)(=O)NCc1c(C)ncc2c1CCN(C(=O)c1ccc3[nH]c4c(c3c1)CCCC4)C2,inconclusive: 15%
5,Cc1nc(-c2ccc(C(=O)N3CCCC3C(=O)N3CCN(c4cccc(C)c4C)CC3)cc2)no1 (centres undefined),inconclusive: 21%
6,O=C(c1cccc(S(=O)(=O)N2CCCCCC2)c1)N1CCN(c2ccccc2)CC1,inconclusive: 15%
7,O=C(CNS(=O)(=O)c1cccs1)NC1CCCCCC1,inactive
8,O=c1oc2c(Br)c(O)c(Br)cc2s1,inconclusive: 10%
9,CCOc1cc(/C=C2/C(=N)N3C=CSC3=NC2=O)ccc1OCCCOc1ccccc1OC,inconclusive: 26%
10,Cc1cc(Cl)c(OCCCN2CCN(C)CC2)c(Br)c1,inconclusive: 29%
11,N#CC1=C(N)SC(N)=C(C#N)C1c1ccccc1I,inconclusive: 19%
12,COc1ccccc1-c1cccc(C(=O)N2C[C@@H]3[C@H](C2)[C@H]2CC[C@@H]3O2)c1,inactive
13,CCOc1ccc(NC(=O)c2cnc3n(c2=O)CCS3)cc1,inactive
14,Cc1ccc(C)c(N2CCN(S(=O)(=O)c3c(C)[nH]c(=O)[nH]c3=O)CC2)c1,inactive
15,O=C(NC1CCCCC1)c1ccc([N+](=O)[O-])o1,inconclusive: 13%
16,COC(=O)CNc1c(-c2ccccn2)nc2ccc(Br)cn12,inconclusive: 16%
17,CSc1nnc2c(n1)OC(c1ccc(Br)o1)Nc1ccc(Br)cc1-2 (centres undefined),inactive
18,Cc1nc2cccnc2n1C1CCN(S(=O)(=O)c2ccc(F)cc2)CC1,inconclusive: 19%
19,Cc1ccc(-c2noc([C@@H]3Cc4nc[nH]c4CN3C(=O)c3ccco3)n2)cc1,inconclusive: 16%
